Source: PMC7171161
These are yes or no findings as the source states them, for the method shown. In cells and extracts the contact can be indirect.

Amino acid sequences for entries named in this document (tags omitted). A change or cut given only in a name is not applied to a line headed by its entry.
UniProt Q8N103: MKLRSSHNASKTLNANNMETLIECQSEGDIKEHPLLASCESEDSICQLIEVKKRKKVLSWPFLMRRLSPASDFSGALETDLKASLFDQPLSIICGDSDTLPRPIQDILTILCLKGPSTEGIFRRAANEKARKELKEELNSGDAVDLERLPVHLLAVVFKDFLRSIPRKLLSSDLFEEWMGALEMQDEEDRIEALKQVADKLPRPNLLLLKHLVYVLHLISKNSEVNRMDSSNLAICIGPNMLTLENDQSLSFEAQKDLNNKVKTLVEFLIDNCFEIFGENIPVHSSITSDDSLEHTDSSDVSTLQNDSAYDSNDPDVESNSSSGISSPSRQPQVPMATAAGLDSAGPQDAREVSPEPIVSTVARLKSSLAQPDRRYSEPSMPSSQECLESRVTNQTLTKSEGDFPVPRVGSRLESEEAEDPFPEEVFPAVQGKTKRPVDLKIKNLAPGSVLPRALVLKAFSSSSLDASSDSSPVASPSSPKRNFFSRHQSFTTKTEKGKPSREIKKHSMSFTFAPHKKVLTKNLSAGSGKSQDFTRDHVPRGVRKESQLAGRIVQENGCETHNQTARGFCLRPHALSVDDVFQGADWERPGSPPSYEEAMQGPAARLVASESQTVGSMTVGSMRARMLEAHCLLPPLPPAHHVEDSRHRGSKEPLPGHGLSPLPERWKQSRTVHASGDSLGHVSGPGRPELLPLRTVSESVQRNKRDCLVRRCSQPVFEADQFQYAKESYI

Assays:
Dectin-1 = target: T1, Dectin-1 (UniProt Q9BXN2); assay: co-IP; HEK293T cells transfected with the indicated plasmids; lysis in 0.5% Triton X-100, 20 mM Hepes pH 7.4, 150 mM NaCl; immunoprecipitation with anti-Flag or anti-HA, 4 degrees overnight, immunoblot; for TAGAP with Dectin-1/-2/-3 also in EPHB2-knocked down 293 T cells; for Dectin-1 with EPHB2 also with co-expressed wild-type or K402R Syk
T1 sequence: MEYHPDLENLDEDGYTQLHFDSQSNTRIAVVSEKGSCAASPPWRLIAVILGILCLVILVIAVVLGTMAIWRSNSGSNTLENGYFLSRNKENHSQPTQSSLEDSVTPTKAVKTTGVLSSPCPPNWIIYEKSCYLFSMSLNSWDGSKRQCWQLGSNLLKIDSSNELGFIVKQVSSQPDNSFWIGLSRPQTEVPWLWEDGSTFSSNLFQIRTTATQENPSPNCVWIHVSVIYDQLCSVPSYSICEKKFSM

Dectin-2 = target: T2, Dectin-2 (UniProt Q6EIG7); assay: as above
T2 sequence: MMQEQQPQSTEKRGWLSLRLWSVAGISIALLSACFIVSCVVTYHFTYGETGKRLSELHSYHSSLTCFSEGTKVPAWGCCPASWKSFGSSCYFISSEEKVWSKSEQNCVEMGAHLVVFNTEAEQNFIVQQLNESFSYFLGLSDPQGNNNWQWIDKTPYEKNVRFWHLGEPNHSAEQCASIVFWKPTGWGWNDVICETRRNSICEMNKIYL

TAGAPΔGAP (GAP domain deletion mutant of TAGAP) (from UniProt Q8N103)
binding (Dectin-1): no binding | binding (Dectin-2): no binding
